# Some of the results follow.
# Experiment: MT1-MMP activation inhibitors, cellular reporter – HT1080 RFP-PRO-GFP cells, GFP/RFP fluorescence, primary screen (AID 651647)
# Conditions: GFP/RFP ratio fluorescence, overnight, RFP expression control read, at 20 µM
# Summary of the method: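 Material – HT1080 RFP-PRO-GFP cells · Control set – DMSO wells and RFP-L50D-GFP cells · Incubation – overnight cell settling, then overnight compound exposure, 37 °C, 5% CO2 · Compound dosing – single-point 20 µM compound, 1% DMSO · Read-out – GFP/RFP fluorescence ratio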
row,SMILES,RFP signal change
1,COc1ccccc1OP(C)(=O)Nc1ccc(C)cc1C (centres undefined),8.4%
2,Oc1ccccc1CNc1ccccn1,-4.49%
3,O=C(NC(Sc1ccncn1)C(Cl)(Cl)Cl)c1ccccc1 (centres undefined),3.14%
4,CC(C)CC(=O)NC(Sc1ccc(Cl)cc1)C(Cl)(Cl)Cl (centres undefined),-4.21%
5,O=[N+]([O-])c1cc([N+](=O)[O-])c(Nc2ccccn2)c([N+](=O)[O-])c1,-6.13%
6,Cc1c(NP(C)(=O)Oc2ccc(C(C)C)cc2)c(=O)n(-c2ccccc2)n1C (centres undefined),1.31%
7,Nc1cc(N)c2nonc2c1[N+](=O)[O-],1.75%
8,Clc1ccc(Cl)c(NC2=NCC(CBr)S2)c1 (centres undefined),7.01%
9,CN(C)CCOC(=O)C(O)(c1ccccc1)C1CCCC1 (centres undefined),-1.77%
10,CN1CCCC(OC(=O)C(c2ccccc2)c2ccccc2)C1 (centres undefined),-0.00756%
11,COc1ccc(OP(C)(=O)Nc2ccccn2)cc1 (centres undefined),7.02%
12,COc1ccccc1OP(=O)(Nc1ccc(C)cn1)Oc1ccccc1OC,0.238%
13,Cc1ccc(OP(=O)(Nc2nccs2)Oc2ccc(C)cc2)cc1,0.317%
14,COc1ccccc1OP(C)(=O)Nc1ccc(Br)cc1 (centres undefined),-1.31%
15,CN(C(=O)Cc1ccc(Cl)c(Cl)c1)[C@H]1CCCC[C@H]1N1CCCC1,-1.44%
16,Cc1ccc(N/C(=N/P(=O)(N2CCOCC2)N2CCOCC2)N2CCOCC2)cc1,-4.94%
17,NC(=O)c1cc([N+](=O)[O-])cc([N+](=O)[O-])c1N,-1.28%
18,Nc1cccc2ccc([As](=O)(O)O)cc12,20.5%
19,CP(=O)(OCCOc1ccccc1)OCCOc1ccccc1,-1.52%
20,CCCCCCCCCCCCCCCC1C[N+](C)(C)CCOP(C)(=O)O1 (centres undefined),-18.6%

row,SMILES,RFP signal change
1,CP(=O)(Nc1ccc(Cl)cc1Cl)Oc1ccccc1 (centres undefined),5.66%
2,CCN(N=Nc1nonc1N)c1nonc1N,0.715%
3,COc1ccc(OP(C)(=O)Nc2ccccc2Br)cc1 (centres undefined),1.86%
4,CCOP(=O)(Nc1ccccc1)OCC,0.51%
5,Cc1cc(SC(NC(=O)c2ccc(F)cc2)C(Cl)(Cl)Cl)ncn1 (centres undefined),2.14%
6,Cc1ccc(NP(=O)(Oc2ccccc2F)Oc2ccccc2F)nc1,2.6%
7,CN(C(=O)Cc1ccc(Cl)c(Cl)c1)[C@H]1CCCC[C@@H]1N1CCCC1,5.89%
8,COc1ccccc1OP(C)(=O)Nc1ccc(C)c(C)c1 (centres undefined),1.35%
9,O=C1C(O)=C([N+](=O)[O-])C(=O)C(O)=C1[N+](=O)[O-],-0.671%
10,Cc1cc(C)cc(OP(C)(=O)Nc2cccc(C(F)(F)F)c2)c1 (centres undefined),5.28%
11,CN(C)P(=O)(N(C)C)n1c(Nc2ccccc2)nnc1-c1ccccc1,-6.19%
12,O=P(Nc1nc2ccc(Cl)cc2s1)(c1ccccc1)c1ccccc1,-4.91%
13,O=C(O)c1ccccc1[As](=O)(O)O,1.64%
14,CC(=O)Nc1ccc([As](=O)(O)O)cc1,6.94%
15,CCCC1OP(N)(=O)OCC1CC (centres undefined),4.95%
16,O=C(O)CNc1ccc([As](=O)(O)O)cc1,1.17%
17,O=[N+]([O-])c1cccc(NC2=NCC(CBr)S2)c1 (centres undefined),1.67%
18,COC(=O)C1(C)COP(=O)(Nc2ccccc2)OC1 (centres undefined),-0.406%
19,O=[N+]([O-])c1ncn(CCn2ncnc2[N+](=O)[O-])n1,-6.3%
20,CC(C)(C)C(=O)NC(Sc1ccncn1)C(Cl)(Cl)Cl (centres undefined),-2.63%

row,SMILES,RFP signal change
1,CP(=O)(OC12CC3CC(CC(C3)C1)C2)OC12CC3CC(CC(C3)C1)C2,-6.84%
2,CCOC(=O)c1ccc(NP(C)(=O)Oc2ccc(Cl)cc2)cc1 (centres undefined),-2.63%
3,O=C(Nc1cc([As](=O)(O)O)ccc1O)c1ccccc1,1.34%
4,O=P1(N(CCCl)CCCl)OCCCS1 (centres undefined),1.83%
5,c1cc(-c2nn[nH]n2)ccc1-c1nn[nH]n1,5.09%
6,CC1CCN(C(=O)Oc2c(Cl)cc(Cl)c3cccnc23)CC1,-2.44%
7,CC(C)=N/N=C(\N)N[N+](=O)[O-],4.4%
8,CC(C)c1nc(Nc2ccccc2)n(P(=O)(N(C)C)N(C)C)n1,-2.81%
9,CN(C)C(=O)OCCc1n(C)cc[n+]1C,3.63%
10,CCN(/C(=N/P(=O)(N1CCOCC1)N1CCOCC1)N1CCOCC1)c1ccc(OC)cc1,3.23%
11,CP(=O)(Nc1ccc(Cl)cc1)Oc1ccc(F)cc1 (centres undefined),-0.801%
12,CC(C)(C)c1ccc(OP(C)(=O)O)cc1,1.48%
13,Nc1ccc([As](=O)(O)c2ccc(N)cc2)cc1,0.688%
14,COc1ccccc1OP(C)(=O)Nc1ccccc1Br (centres undefined),4.07%
15,C[N+]1=C2C=CC=CC=C2SC12C([N+](=O)[O-])=CC([N+](=O)[O-])=C[C-]2[N+](=O)[O-] (centres undefined),-14.6%
16,CP(=O)(Oc1ccccc1)N1CCOC1=O (centres undefined),2.48%
17,Cc1ccc(NP(=O)(Oc2ccccc2)Oc2ccccc2)nc1,-0.473%
18,CCc1nc2c(n1)c1c(non1O)c1c2no[n+]1[O-],7.2%
19,O=[N+]([O-])c1cc([N+](=O)[O-])c(CCNc2ccccc2)c([N+](=O)[O-])c1,-5.51%

# Source: PubChem BioAssay AID651647 (Sanford-Burnham Center for Chemical Genomics, 2012)
